Test results as given in patent US4179516A, “Ethers of 3,4-dihydro-1-benzoxepin-5-one oxime to treat intestinal disorders” (Albert Rolland, S.A., priority 1973, dated 1979).

Experiment: in vivo
Settings: mouse
Procedure: The tests were carried out on acid addition salts of the amines of the general formula.
The acute toxicity was determined in male Swiss C.D. mice weighing an average of 20 grammes, after oral administration (P.O) and intravenous administration (I.V.).

CN1[C@@H]2CC[C@H]1C[C@@H](OC(=O)C(CO)c1ccccc1)C2 (some centres unmarked) [ATROPINE, reference compound]
LD50 (iv): 90 mg/kg | LD50 (po): 600 mg/kg
